Laboratory results taken from publication PMC5385568.
Results are given in words; binding and its absence hold for the method and conditions named. Binding seen in cells or lysates may run through a third protein. Some binding calls cover weakened binding; strength is not graded here. Where a sequence is shown, tags or fusion partners need not be part of it.

Sequences of proteins named here, by UniProt entry; tags and fusion partners are left off.
UniProt O08788: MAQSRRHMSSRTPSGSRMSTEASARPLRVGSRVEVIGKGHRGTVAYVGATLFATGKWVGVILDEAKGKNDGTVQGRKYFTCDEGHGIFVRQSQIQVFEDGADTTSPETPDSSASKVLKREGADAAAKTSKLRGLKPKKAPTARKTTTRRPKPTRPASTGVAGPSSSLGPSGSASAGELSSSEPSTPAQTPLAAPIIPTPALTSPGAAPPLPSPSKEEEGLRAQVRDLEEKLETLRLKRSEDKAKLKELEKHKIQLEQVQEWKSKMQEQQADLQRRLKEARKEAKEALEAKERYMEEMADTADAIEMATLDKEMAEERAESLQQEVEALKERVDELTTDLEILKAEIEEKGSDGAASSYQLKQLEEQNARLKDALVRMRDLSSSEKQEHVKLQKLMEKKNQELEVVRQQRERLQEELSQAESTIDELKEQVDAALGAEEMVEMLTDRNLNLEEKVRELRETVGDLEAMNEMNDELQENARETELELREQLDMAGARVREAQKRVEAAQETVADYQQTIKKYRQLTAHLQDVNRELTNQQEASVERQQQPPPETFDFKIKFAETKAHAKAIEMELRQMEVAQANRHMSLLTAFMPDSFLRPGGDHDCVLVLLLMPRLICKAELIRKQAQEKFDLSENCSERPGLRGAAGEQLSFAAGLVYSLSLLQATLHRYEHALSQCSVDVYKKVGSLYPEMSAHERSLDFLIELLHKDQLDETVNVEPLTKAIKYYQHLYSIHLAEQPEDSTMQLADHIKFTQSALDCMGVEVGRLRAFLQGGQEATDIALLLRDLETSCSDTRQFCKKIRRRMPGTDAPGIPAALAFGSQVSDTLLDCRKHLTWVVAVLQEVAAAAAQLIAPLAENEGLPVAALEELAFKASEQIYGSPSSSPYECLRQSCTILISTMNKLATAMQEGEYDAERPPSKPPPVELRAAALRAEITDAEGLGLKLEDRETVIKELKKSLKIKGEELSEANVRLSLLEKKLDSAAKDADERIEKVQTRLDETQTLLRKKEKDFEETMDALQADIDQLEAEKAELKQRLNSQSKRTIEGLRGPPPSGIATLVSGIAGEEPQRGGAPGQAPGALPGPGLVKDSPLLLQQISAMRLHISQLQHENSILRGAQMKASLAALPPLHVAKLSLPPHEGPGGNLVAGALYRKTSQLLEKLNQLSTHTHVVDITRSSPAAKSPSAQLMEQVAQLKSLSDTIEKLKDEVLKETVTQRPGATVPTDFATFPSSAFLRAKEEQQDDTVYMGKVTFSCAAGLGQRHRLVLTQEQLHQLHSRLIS

Target: T1, GST-tagged human Stonin 2 (amino acids 1–555) (human) (UniProt Q8WXE9)
T1 sequence: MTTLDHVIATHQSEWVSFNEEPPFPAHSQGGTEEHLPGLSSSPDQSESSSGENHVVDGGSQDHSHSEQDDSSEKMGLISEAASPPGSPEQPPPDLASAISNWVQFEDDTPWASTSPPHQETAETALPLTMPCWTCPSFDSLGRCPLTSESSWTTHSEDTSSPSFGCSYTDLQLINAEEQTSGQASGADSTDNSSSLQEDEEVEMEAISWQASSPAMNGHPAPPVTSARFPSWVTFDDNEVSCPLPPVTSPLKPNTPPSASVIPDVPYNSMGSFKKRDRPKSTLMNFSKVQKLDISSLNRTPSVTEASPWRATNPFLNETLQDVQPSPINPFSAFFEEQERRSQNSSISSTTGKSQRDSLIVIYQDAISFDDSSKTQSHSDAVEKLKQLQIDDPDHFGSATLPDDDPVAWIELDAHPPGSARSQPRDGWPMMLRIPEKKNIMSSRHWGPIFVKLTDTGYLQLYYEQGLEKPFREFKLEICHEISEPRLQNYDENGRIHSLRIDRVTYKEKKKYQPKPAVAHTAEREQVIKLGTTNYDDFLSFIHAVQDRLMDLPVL
Assay: pull-down; 50 μg recombinant purified GST fusion protein as bait with detergent-extracted mouse brain lysate; 10 mM HEPES pH 7.4, 150 mM NaCl, 2 mM DTT, 0.05% Triton X-100; 2 h at 4 °C; immunoblotting; only the target purified

- binding: binds
Substance: endogenous p150^Glued subunit of dynactin (mouse brain) (from UniProt O08788 1-1281)
